Laboratory results taken from article PMC4302594.

How the values were obtained:
[1] = target: GST-fused Chlamydia pneumoniae TW183 chlamydial outer protein N (GST-CpCopN) (Chlamydia pneumoniae TW183); test: affinity purification with mass spectrometry; GST-fusion proteins on glutathione-agarose beads mixed with soluble fraction of HEp-2 cells, 4-12 h at 4°C, 40 mM Tris-HCl pH 7.5, 150 mM NaCl, 0.5% Triton-X-100; eluate on SDS-PAGE with Coomassie staining, specific band cut out for nano-LC-MS/MS; only the target purified
[2] = target: GST-fused Chlamydia trachomatis D/UW-3/CX chlamydial outer protein N (GST-CtCopN) (Chlamydia trachomatis D/UW-3/CX); test: as above

B1: fructose bisphosphate aldolase A (enzyme, UniProt P04075 1-364)
chain: MPYQYPALTPEQKKELSDIAHRIVAPGKGILAADESTGSIAKRLQSIGTENTEENRRFYRQLLLTADDRVNPCIGGVILFHETLYQKADDGRPFPQVIKSKGGVVGIKVDKGVVPLAGTNGETTTQGLDGLSERCAQYKKDGADFAKWRCVLKIGEHTPSALAIMENANVLARYASICQQNGIVPIVEPEILPDGDHDLKRCQYVTEKVLAAVYKALSDHHIYLEGTLLKPNMVTPGHACTQKFSHEEIAMATVTALRRTVPPAVTGITFLSGGQSEEEASINLNAINKCPLLKPWALTFSYGRALQASALKAWGGKKENLKAAQEEYVKRALANSLACQGKYTPSGQAGAAASESLFVSNHAY
B1 was tested, and the binding [1] was “binds” and the binding [2] was “no binding”.

Results are given in words; binding and its absence hold for the method and conditions named. Binding seen in cells or lysates may run through a third protein. Here binding means that the protein was enriched with, or labelled near, the bait; the list need not be complete. For some assays here: No binding means not detected with the bait.
